In article PMC10925683 one finds binding data, which are given here for one substance.

Chains of the proteins cited; added tags and fusions are not shown. Lines headed by an entry give the natural chain unless they say otherwise; changes in a name come on top.
UniProt P01584: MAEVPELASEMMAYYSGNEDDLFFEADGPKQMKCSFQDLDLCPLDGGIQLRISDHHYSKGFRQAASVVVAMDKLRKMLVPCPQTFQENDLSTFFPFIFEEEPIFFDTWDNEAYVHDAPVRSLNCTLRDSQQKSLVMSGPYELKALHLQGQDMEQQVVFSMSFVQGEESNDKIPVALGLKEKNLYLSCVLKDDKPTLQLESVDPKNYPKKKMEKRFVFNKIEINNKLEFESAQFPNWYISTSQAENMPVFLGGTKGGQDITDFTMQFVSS

No constants are given. Whether binding was seen depends on the method and setting. Binding seen in cells or lysates may run through a third protein. Tags and fused reporters may be left off the sequences shown.

The assay addresses T1, ubiquitin specific protease 50 (Flag-USP50) (UniProt Q70EL3).
T1 sequence: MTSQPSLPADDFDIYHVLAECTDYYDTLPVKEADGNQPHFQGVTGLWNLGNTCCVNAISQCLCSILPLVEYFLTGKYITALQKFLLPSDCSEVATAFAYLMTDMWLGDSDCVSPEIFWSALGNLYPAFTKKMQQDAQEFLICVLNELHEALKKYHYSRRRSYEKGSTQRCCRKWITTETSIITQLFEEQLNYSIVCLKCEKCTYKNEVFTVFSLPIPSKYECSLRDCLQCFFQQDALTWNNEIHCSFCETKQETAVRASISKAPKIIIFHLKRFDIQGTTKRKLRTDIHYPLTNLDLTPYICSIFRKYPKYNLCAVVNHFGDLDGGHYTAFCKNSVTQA
Briefly: co-IP; lysate of U937 cells stably expressing Flag-USP50 (or vector); anti-FLAG antibody overnight at 4°C, agarose 4 h, washed three times; western blotting of the precipitate. In general terms: In western blotting, separated proteins are transferred to a membrane and probed.

Consider pro-IL-1β (from UniProt P01584), for which the binding entry is “no binding”.
